In all, about 33,000 sequences were measured (“E-score (-0.5 to 0.5)”: median about -0.015, highest 2% from about 0.3 on). This is one part of the list.
target: T1, Abf1 (UniProt P14164); test: PBM E-score (8-mer binding enrichment) (E-score (-0.5 to 0.5)); higher = stronger / more preferred TF binding; settings: protein concentration: 200 nM; construct: GST-full length
T1 sequence: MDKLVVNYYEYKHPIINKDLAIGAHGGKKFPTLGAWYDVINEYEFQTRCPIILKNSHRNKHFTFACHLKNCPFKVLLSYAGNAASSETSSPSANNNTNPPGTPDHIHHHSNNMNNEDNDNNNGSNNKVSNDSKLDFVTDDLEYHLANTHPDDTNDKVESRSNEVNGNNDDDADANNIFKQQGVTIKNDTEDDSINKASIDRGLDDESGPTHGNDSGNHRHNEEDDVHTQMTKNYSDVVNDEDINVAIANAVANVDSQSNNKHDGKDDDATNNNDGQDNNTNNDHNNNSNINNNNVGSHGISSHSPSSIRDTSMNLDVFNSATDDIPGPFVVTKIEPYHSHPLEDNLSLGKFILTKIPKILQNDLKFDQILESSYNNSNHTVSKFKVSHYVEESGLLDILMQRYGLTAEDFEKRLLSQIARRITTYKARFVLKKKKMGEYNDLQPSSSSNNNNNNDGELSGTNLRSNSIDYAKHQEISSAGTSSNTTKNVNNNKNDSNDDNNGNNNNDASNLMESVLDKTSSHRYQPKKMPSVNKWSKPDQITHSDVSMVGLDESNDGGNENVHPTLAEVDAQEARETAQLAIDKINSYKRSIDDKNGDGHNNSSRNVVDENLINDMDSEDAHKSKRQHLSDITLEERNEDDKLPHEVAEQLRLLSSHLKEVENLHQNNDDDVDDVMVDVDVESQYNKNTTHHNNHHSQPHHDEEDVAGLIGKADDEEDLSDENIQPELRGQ
How it was run: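 Using PURExpress in vitro transcription/translation, GST-tagged yeast transcription factors were made in full-length or DNA-binding-domain form. These were applied at about 100-200 nM to double-stranded universal all-10-mer Agilent arrays, and bound protein was detected with fluorescent anti-GST. Scans were normalised with masliner before the Universal PBM Analysis Suite assigned E-scores to ungapped eight-base words pooled with their reverse complements.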

Sequence	PBM E-score
TACTCACA	0.0223
CGTATGTA	0.229
AATTGCAG	-0.154
AACTCATG	-0.128
GAGGGTCC	-0.238
GGCGGTCA	-0.0623
TAGTTAAA	0.12
ACCCAGCC	-0.186
GCGCCGAA	-0.0451
CATGATCC	0.00859
CCGTGGGA	0.0628
CAGAGCCC	0.00619
CCTACCTA	-0.0209
AAAGCCGA	-0.259
TCGAACCA	-0.247
CGTCGTCA	0.24
AGTCAGGC	0.0254
CATCTGAA	0.06
GAATCATC	0.152
GCTCGTAC	0.0657
GGCGGTTA	-0.237
ACCGATTC	-0.225
GCAAGAGA	-0.122
AGCAGGAA	-0.0572
CCGGAACG	-0.125

Sequence	PBM E-score
AAGGATCT	-0.165
CGAAACTC	-0.0892
ATAGACTG	-0.13
ATCCGAAT	0.219
CTGTGATA	0.201
AATACATG	0.00322
CGATATTC	0.225
ACCTCTAA	-0.0204
AGGCTGGG	-0.164
ACGACCAG	0.301
TGTATTAA	0.126
AGCATTAA	-0.00473
CTGTGGTC	-0.285
CTATCAGA	-0.134
ACGCGCGC	0.151
AAACCCCA	-0.0864
GGGGCCTA	-0.355
CTATCAAG	0.0452
GTCTTCAC	0.126
GTAGTAAA	0.0925
ACAACTAC	-0.00862
GCACGTAA	-0.0457
ATCCGCAG	0.104
CGCTATAG	-0.297
GTCTTCCA	-0.112

Look-ups from above:
PBM E-score with AATACATG is entered as 0.00322
PBM E-score with CTATCAAG is entered as 0.0452
PBM E-score with AGCATTAA is entered as -0.00473
PBM E-score with ATCCGAAT is entered as 0.219
PBM E-score with ACCTCTAA is entered as -0.0204
PBM E-score with CGCTATAG is entered as -0.297
PBM E-score with GCACGTAA is entered as -0.0457

More entries:

Sequence	PBM E-score
ACATAATG	0.127
ACGATAAT	0.303
ATAATTAC	0.261
CTGCGAAC	0.126
AAGGACAG	0.00492
GTTAGGTA	0.127
ATATCGTA	0.203
ATAGAGCC	-0.19
GCGACGGA	0.0544
ACAGGAGG	-0.337
AGATATAC	0.0837
AATGGAGG	-0.133
CCAAGGTA	-0.0719
GGCAGGTA	-0.196
ATATTAGA	0.209
GTGTTAAA	0.172
CCATGCCG	0.0676
AAAGACTC	-0.122
AGAAACGC	-0.132
ATGTCCGG	-0.00994
AAAGGAGA	-0.185
ACCGGCTA	-0.0984
GGAAGCGA	0.0737
GCTTGACC	-0.231
AAGGATAA	-0.0479

Sequence	PBM E-score
CTAATGTA	0.0488
GAAGAAAC	-0.133
AAACTAAA	0.0822
ACAGCTAC	-0.0185
GCTCGTCA	0.259
GGCTAACC	-0.214
TGTAAACA	-0.0609
CATCGCTA	0.287
CCGGAAAG	-0.205
GTAGGTAA	-0.0914
TAACCACA	0.0853
ATAACGCA	-0.0614
ACGGTCAT	0.146
CGGGAAAG	-0.13
CGCATTTC	-0.0669
ACATGTAC	0.0562
CTCTGACC	-0.254
CTTCTGTC	0.123
TGGATCAA	0.0614
ACGGATGC	-0.113
ACCCATGA	-0.115
ACCCCCGA	-0.223
GCATACCA	-0.137
CACGGAGC	0.111
GGACGTAA	0.104

Sequence	PBM E-score
GGGAACTA	-0.0326
CCAAATCA	0.0489
GAGCCCGC	-0.19
ATCGCATC	0.0782
GATGAAGA	0.0748
GGCTCCAA	-0.147
AGAGTGGC	-0.251
AGTCTGTA	-0.278
ATAGACCC	-0.0996
CAGTCGAC	0.137
CTGTTTTC	-0.0882
AACCTCTA	-0.167
ACAGGAGC	-0.0079
CTGCGCCA	-0.0463
AACTTCGC	0.0243
TGTCCGAA	0.2
AGGTTGAG	-0.122
ATAATGAC	0.258
AGCTCAAT	-0.0573
AGTAGAGC	-0.168
CTTACTCA	-0.139
CCAGCAGG	-0.109
GTGCGGTA	-0.0342
ATAGAAAC	0.0214
AACGTATC	0.18

Sequence	PBM E-score
CCGGTACC	-0.121
AGGTCTGC	-0.209
AACTGGAG	-0.175
ACAGGACG	-0.0827
GTTTAAAC	0.132
GTAACGGA	0.182
AAGAGCTT	-0.207
GTAAGGAC	-0.0313
ACGCTATC	-0.174
AGTAGACG	0.187
AATACTAC	0.301
CCTCCGTC	-0.044
GAAGTGTA	-0.269
CCCAGGAC	-0.152
GCGTGCCA	-0.0325
ATACTATC	0.15
GATTCCAA	-0.0213
TATGACCA	-0.0211
CGTGTAAG	0.275
CTAATCCC	-0.0463
CAGGCTGG	-0.255
CTATCGGA	-0.0464
ATCCCGGC	0.0423
AAGCACAC	-0.153
AAGTCTGC	-0.272

Sequence	PBM E-score
CTAGACCC	-0.0825
TGTTTCAA	0.0673
ATTTCCGA	0.151
GCAATATA	0.108
AAAGCGCG	-0.0642
CTGTGCGA	0.0508
CTGGAGTA	-0.163
AACAAAGA	-0.113
AAACAGCA	0.0135
CAACACGC	-0.239
GCTACGGA	0.218
CGCCCATC	-0.154
CGTGAGTC	0.0135
ACCCCCAA	-0.219
ACGCCTAA	0.0738
AGACTTCG	-0.14
CGCGTACG	0.271
ACTAATAA	0.264
AAACCTCC	-0.203
AGTTCTGC	-0.197
AGACCTTG	-0.266
ACTCCGAT	-0.196
